The target of the assay is T1, Flag-ELL (human) (UniProt P55199).
T1 sequence: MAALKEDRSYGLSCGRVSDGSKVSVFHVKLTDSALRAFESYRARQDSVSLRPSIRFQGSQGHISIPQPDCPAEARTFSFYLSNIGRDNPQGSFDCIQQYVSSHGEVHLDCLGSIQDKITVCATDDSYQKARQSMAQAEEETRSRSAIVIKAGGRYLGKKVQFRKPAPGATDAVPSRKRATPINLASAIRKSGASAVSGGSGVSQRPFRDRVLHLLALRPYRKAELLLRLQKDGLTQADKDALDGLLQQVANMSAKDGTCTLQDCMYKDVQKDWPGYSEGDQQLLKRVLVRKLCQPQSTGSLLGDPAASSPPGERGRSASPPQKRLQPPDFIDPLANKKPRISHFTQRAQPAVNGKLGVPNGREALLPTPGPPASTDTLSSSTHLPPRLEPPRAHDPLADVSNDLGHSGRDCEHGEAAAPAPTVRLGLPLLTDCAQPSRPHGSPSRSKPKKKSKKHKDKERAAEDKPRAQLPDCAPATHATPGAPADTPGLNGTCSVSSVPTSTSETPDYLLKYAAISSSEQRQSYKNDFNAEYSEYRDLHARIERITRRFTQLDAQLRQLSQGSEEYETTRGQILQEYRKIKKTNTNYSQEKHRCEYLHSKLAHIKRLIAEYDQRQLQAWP
As to the kind of experiment: co-IP; tagged proteins overexpressed by co-transfection in HEK293 or HEK293T cells; antibody-conjugated agarose beads (anti-c-Myc, anti-HA, anti-Flag); 2-3 times more HA-c-Myc plasmid where ELL was co-transfected.

Results are given in words; binding and its absence hold for the method and conditions named. Binding seen in cells or lysates may run through a third protein. Binding calls can cover weak binding; strength is not graded here. Where a sequence is shown, tags or fusion partners need not be part of it.

In the case of “HA-tagged c-Myc mutant with Max-binding domain (aa 1-354) deletion (from UniProt P01106-1) (domain or fragment)”, the binding entry is “binds”.

Values taken from article PMC4820845.
